In PubChem BioAssay AID1487 (National Center for Advancing Translational Sciences (NCATS), 2009) one finds AC50 data, which are given here for 51 compounds.

The list shows a part of the results. The main result of the screen is listed elsewhere. These columns were measured beside it and carry no call. The list favours compounds with an active or inconclusive main result. Potencies come from curve fits of mixed quality, noted in brackets.

A short description of this assay: qHTS Assay for Modulators of Lamin A Splicing. As to conditions: HeLa LMNA splicing GFP/RFP minigene ratio, 48 h. The procedure, abridged: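 S3 HeLa stable clones carrying a lamin A-EGFP splicing minigene plus DsRed2 were seeded at 600 cells/well in Opti-MEM with 2% FBS, pin-dosed and incubated 48 h at 37°C. Acumen cytometry (488 nm) gave the GFP/RFP total-intensity ratio.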

Setting [1] is: measured here: RFP viability control channel.
Where [2] appears, read: measured here: GFP splicing reporter channel.

For the compound `CC(=O)c1c(C)[nH]c(C(=O)Nc2cccc(S(=O)(=O)N3CCOCC3)c2)c1C`, under setting [1], the concentration at half-maximal activity (AC50) was 11.2 µM [rising, partial curve].

On to `CN(Cc1ccccc1)S(=O)(=O)c1ccc(NC(=O)C2CCCO2)cc1` (configuration not stated), for which the concentration at half-maximal activity (AC50) under setting [1] was 10 µM [rising, partial curve, poor fit]. With `NC(=O)c1ccsc1NC(=O)c1ccc2c(c1)CCCC2`, the AC50 under setting [1] is 11.2 µM [rising, partial curve]. Same read-out and setting: the same measure for `Cc1ccc(C)c(Nc2ncccc2C(=O)NCc2cccs2)c1`: 20 µM [rising, single point]; for `CCOC(=O)c1ccc(NC(=O)c2ccc(CO)c(C(=O)NC3CCN(C(=O)OCC)CC3)c2)cc1`: 14.1 µM [rising, single point]. `CCCc1nn2c(=O)cc(COC(=O)c3ccccc3NC(=O)c3ccc(Cl)cc3)nc2s1`: the AC50 runs as follows: under setting [2], 0.178 µM [falling, full curve]; under setting [1], 0.158 µM [falling, full curve].

On to `COc1cccc(NC(=O)c2c(C)cc(C)cc2CC(C)(C)C(=O)O)c1`, for which the AC50 is, setting by setting: under setting [2], 3.98 µM [rising, partial curve, poor fit]; under setting [1], 3.55 µM [rising, single point]. Turning to `Cc1ccccc1C(=O)OCc1cc(=O)n2nc(-c3cccs3)sc2n1`, the half-maximal activity concentration (AC50) was 1.26 µM [falling, full curve] under setting [2] and 0.0398 µM [falling, full curve, poor fit] under setting [1]. As for `COc1cccc(Cn2c(=O)c(-c3ccc(Cl)cc3)nc3cnc(N4CCNCC4)nc32)c1`, the AC50 was 22.4 µM [falling, partial curve] under setting [2] and 14.1 µM [falling, partial curve] under setting [1].

Turning to `COCCn1c(SCC(=O)NCc2ccco2)nnc1-c1c[nH]c2ccccc12`, the AC50 under setting [1] is 5.01 µM [rising, full curve, poor fit]. With `COc1ccc2cc(S(=O)(=O)N3CCCCC3)ccc2c1S(=O)(=O)N1CCCCC1`, the AC50 under setting [2] is 12.6 µM [rising, single point] and the AC50 under setting [1] is 15.8 µM [rising, single point]. Regarding `CCOC(=O)C(C)Sc1nnc(NC(=O)c2ccc3c(c2)OCO3)s1` (configuration not stated), the half-maximal activity concentration (AC50) under setting [1] is 0.891 µM [rising, single point]. On to `Nn1cnnc1N/N=C\c1ccc(-c2ccccc2[N+](=O)[O-])o1`, for which the concentration at half-maximal activity (AC50) reads like this: under setting [2], 6.31 µM [falling, full curve]; under setting [1], 10 µM [falling, partial curve]. Take `CC(C)(C)C(=O)NC(=S)NNC(=O)c1ccncc1`: the half-maximal activity concentration (AC50) under setting [1] is 4.47 µM [rising, partial curve]. For the compound `Fc1cccc(Nc2ncnc3sc4c(c23)CCC4)c1`, the AC50 under setting [1] is 35.5 µM [rising, single point]. In the case of `CCN(CC(=O)Nc1cc(Cl)ccc1C)c1ncnc2sc(C)c(C)c12`, the AC50 reads like this: under setting [2], 31.6 µM [rising, single point]; under setting [1], 31.6 µM [rising, single point]. With `COc1ccc(CC(NC(C)=O)C(=O)NC2CCN(c3c4c(nc5ncnn35)CCC4)CC2)cc1` (configuration not stated), the AC50 under setting [2] is 6.31 µM [rising, single point]. Turning to `CSc1nc2ccccc2cc1/C=C(\C#N)c1cccc(Cl)c1`, the AC50 runs as follows: under setting [2], 7.08 µM [falling, partial curve]; under setting [1], 5.62 µM [falling, partial curve]. For `COC(=O)c1c(Cc2ccccc2Cl)c[nH]c1C`, the half-maximal activity concentration (AC50) is, setting by setting: under setting [2], 35.5 µM [rising, single point]; under setting [1], 25.1 µM [rising, single point]. `Cc1ccc(C(=O)C2CCN(CC(=O)NC3CCCCC3)CC2)cc1`: the concentration at half-maximal activity (AC50) under setting [1] was 31.6 µM [rising, single point].

Take `CCc1ccccc1N(CC)C(=O)CCc1nc(-c2ccc(C)cc2)no1`: the concentration at half-maximal activity (AC50) under setting [2] was 31.6 µM [rising, single point] and the AC50 under setting [1] is 35.5 µM [rising, single point]. On to `CSc1cccc(CN2CCCC(CO)(Cc3cccc(Cl)c3)C2)c1` (configuration not stated), for which, under setting [2], the concentration at half-maximal activity (AC50) is 11.2 µM [falling, partial curve, poor fit]. The same measure, in the same setting: the same measure for `CCN(CCCNC(=O)Cn1ncc2c([nH]c3ccc(C)cc32)c1=O)c1cccc(C)c1`: 2.82 µM [falling, full curve, poor fit]. Still for that read-out and setting: next, `COc1cc(CN2CCN(c3cccc(C)c3C)CC2)cc(Br)c1O`: 17.8 µM [rising, single point]. On to `CCC(=O)N1c2ccccc2CC1C(=O)NCc1ccc(OC(C)C)cc1` (configuration not stated), for which, under setting [1], the concentration at half-maximal activity (AC50) is 17.8 µM [rising, single point]. `CC(OC(=O)c1snc(C(=O)NC2CCCCC2)c1N)C(=O)NC(C)(C)C` (configuration not stated): the half-maximal activity concentration (AC50) under setting [2] was 3.55 µM [rising, full curve] and the AC50 under setting [1] was 10 µM [rising, partial curve]. As for `Cc1ccc2ncnc(Nc3ccc(C)c(C)c3)c2c1`, the half-maximal activity concentration (AC50) under setting [1] was 11.2 µM [rising, partial curve]. On to `Cc1csc2nc(-c3cccc(NC(=O)C(C)C)c3)cn12`, for which the concentration at half-maximal activity (AC50) under setting [2] is 0.447 µM [rising, full curve, poor fit]. As to `CCOC(=O)c1ccc(N2C(=O)C(CC(N)=O)N(CCc3ccc(OC)c(OC)c3)C2=S)cc1` (configuration not stated), the AC50 is 3.16 µM [falling, single point] under setting [2] and 35.5 µM [falling, partial curve, poor fit] under setting [1]. `c1ccc2c(c1)OCCOCCOCCOCCOCCOc1ccccc1OCCOCCOCCO2`: the AC50 runs as follows: under setting [2], 14.1 µM [rising, partial curve, poor fit]; under setting [1], 17.8 µM [rising, partial curve].

In the case of `CCN1C(=O)C(CC(=O)Nc2ccc(Br)cc2)N(CCCc2ccccc2)C1=S` (configuration not stated), the half-maximal activity concentration (AC50) runs as follows: under setting [2], 35.5 µM [falling, single point]; under setting [1], 35.5 µM [falling, single point]. For the compound `COc1cccc(Nc2ncc3nc(-c4cn(C)c5ccccc45)c(=O)n(CCC#N)c3n2)c1`, the AC50 under setting [2] was 2 µM [falling, full curve, poor fit] and the half-maximal activity concentration (AC50) under setting [1] is 4.47 µM [falling, full curve]. Take `C[C@@]1(O)CCOC(=O)C1`: the concentration at half-maximal activity (AC50) was 14.1 µM [falling, single point] under setting [2] and 14.1 µM [falling, single point] under setting [1]. As to `O=C(Nc1cccc(Cl)c1)c1csc(-c2ccccc2)n1`, under setting [1], the concentration at half-maximal activity (AC50) was 20 µM [rising, single point]. On to `CC[n+]1c(/C=C/c2ccc(N(C)C)cc2)ccc2ccccc21`, for which the AC50 is 2.24 µM [rising, partial curve] under setting [2] and 1.41 µM [rising, full curve] under setting [1]. Consider `Cc1cc(C2=NNC(=NC3CCCCC3)SC2)c(C)n1-c1c(C)n(C)n(-c2ccccc2)c1=O`, for which, under setting [1], the AC50 was 0.112 µM [falling, partial curve, poor fit].

In the case of `Cc1cc(S(=O)(=O)N(Cc2cccs2)Cc2ccccc2F)ccc1-n1cnnn1`, the AC50 was 22.4 µM [rising, single point] under setting [2] and 35.5 µM [rising, single point] under setting [1].

On to `CCc1cccc(NC(=O)Cc2cn(C)c3ccccc23)c1`, for which the half-maximal activity concentration (AC50) by setting is: under setting [2], 12.6 µM [rising, single point]; under setting [1], 12.6 µM [rising, partial curve, poor fit]. In the case of `O=C(Cn1cc(C(F)(F)F)cc(Cl)c1=O)Nc1ccc(N2CCOCC2)cc1`, the half-maximal activity concentration (AC50) runs as follows: under setting [2], 11.2 µM [falling, partial curve]; under setting [1], 35.5 µM [falling, partial curve].

For the compound `CO[C@H]1[C@H](O[C@H]2O[C@@H](C)[C@@H](O[C@@H]3C[C@](C)(O)[C@H](O)[C@H](C)O3)[C@@H](N(C)C)[C@@H]2O)[C@@H](CC=O)C[C@@H](C)[C@@H](O[C@H]2CC[C@H](N(C)C)[C@H](C)O2)/C=C\C=C/C[C@@H](C)OC(=O)C[C@H]1O`, the half-maximal activity concentration (AC50) under setting [2] is 3.55 µM [rising, partial curve]. Take `COc1ccccc1NC(=O)c1c(NCc2ccc(OC)c(OC)c2OC)sc2c1CCCC2`: the concentration at half-maximal activity (AC50) under setting [2] is 14.1 µM [falling, partial curve]. For the compound `COc1ccc(NC(=O)c2cc3c(=O)n(Cc4ccco4)ccc3nc2C)cc1`, the half-maximal activity concentration (AC50) under setting [1] was 14.1 µM [rising, single point]. Still for that read-out and setting: next, `COC(=O)C1=C(C)N(C)C(=O)/C1=C\c1ccco1`: 0.141 µM [falling, full curve].

For the compound `CCN1CCN(CCCNC(=O)c2cnn(-c3ccccc3)c2C2CCN(C(=O)OC(C)(C)C)CC2)CC1`, the concentration at half-maximal activity (AC50) under setting [2] was 0.355 µM [falling, full curve, poor fit] and the half-maximal activity concentration (AC50) under setting [1] was 0.282 µM [falling, full curve, poor fit]. With `COc1ccc(CC(=O)Nc2cccc(-c3cn4ccccc4n3)c2)cc1`, the AC50 under setting [1] was 35.5 µM [rising, single point]. As to `CS(=O)(=O)N(CC(=O)N1CCCC1)Cc1ccccc1`, the half-maximal activity concentration (AC50) runs as follows: under setting [2], 2.24 µM [falling, partial curve, poor fit]; under setting [1], 35.5 µM [falling, single point]. `COc1ccc(C(=O)/C=C/c2ccc(OC3CSC3)cc2)cc1OC`: the half-maximal activity concentration (AC50) under setting [2] is 3.16 µM [falling, partial curve] and the AC50 under setting [1] was 10 µM [falling, partial curve].

Regarding `Cc1cc(C)c(S(=O)(=O)Nc2ccc3c(c2)CCC3)c(C)c1`, the AC50 is 35.5 µM [falling, single point] under setting [2] and 35.5 µM [falling, single point] under setting [1]. As to `Cc1nnc(SCC(=O)N(CC(C)C)c2c(N)n(CC(C)C)c(=O)[nH]c2=O)n1-c1ccccc1`, under setting [1], the AC50 was 0.501 µM [falling, full curve, poor fit]. Regarding `CN1CCN(c2cc3c(cc2F)c(=O)c(C(=O)O)cn3-c2ccc(F)cc2)CC1`, the AC50 is, setting by setting: under setting [2], 0.398 µM [falling, full curve, poor fit]; under setting [1], 17.8 µM [rising, single point]. In the case of `COc1cccc(C2C=C(c3ccc(C)c(C)c3)Nc3nnnn32)c1OC` (configuration not stated), the AC50 is 8.91 µM [rising, partial curve, poor fit] under setting [2] and 11.2 µM [rising, partial curve, poor fit] under setting [1].
